In the test the target is p65(wt)-HA-miniTurbo (human) (UniProt Q04206).

Chains of the proteins cited; added tags and fusions are not shown.
UniProt Q04206: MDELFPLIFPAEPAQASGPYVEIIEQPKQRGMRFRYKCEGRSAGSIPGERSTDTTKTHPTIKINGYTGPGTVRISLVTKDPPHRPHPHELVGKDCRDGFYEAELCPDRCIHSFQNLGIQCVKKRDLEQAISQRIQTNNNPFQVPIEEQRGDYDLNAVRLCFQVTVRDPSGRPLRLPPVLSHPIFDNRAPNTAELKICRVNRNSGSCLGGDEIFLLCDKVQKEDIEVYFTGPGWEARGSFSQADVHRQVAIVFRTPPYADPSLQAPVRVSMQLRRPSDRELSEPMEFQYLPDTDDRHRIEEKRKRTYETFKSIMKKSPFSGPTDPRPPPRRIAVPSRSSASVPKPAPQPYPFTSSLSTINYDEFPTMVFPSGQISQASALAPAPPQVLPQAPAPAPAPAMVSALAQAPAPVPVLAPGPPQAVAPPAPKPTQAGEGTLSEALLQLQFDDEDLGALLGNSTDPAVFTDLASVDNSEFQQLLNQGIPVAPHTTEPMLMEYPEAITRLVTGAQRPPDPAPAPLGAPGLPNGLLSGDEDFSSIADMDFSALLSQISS

Results are given in words; binding and its absence hold for the method and conditions named. In cells and extracts the contact can be indirect. These calls come from enrichment with a bait or labelling near it, and not all partners need be listed.

B1: PHLDA2 (protein, UniProt Q53GA4 1-152)
chain: MKSPDEVLREGELEKRSDSLFQLWKKKRGVLTSDRLSLFPASPRARPKELRFHSILKVDCVERTGKYVYFTIVTTDHKEIDFRCAGESCWNAAIALALIDFQNRRALQDFRSRQERTAPAAPAEDAVAAAAAAPSEPSEPSRPSPQPKPRTP
On to B1, for which the binding entry is “binds”.

B2: PHC1 (protein, UniProt P78364 1-1004)
chain: METESEQNSNSTNGSSSSGGSSRPQIAQMSLYERQAVQALQALQRQPNAAQYFHQFMLQQQLSNAQLHSLAAVQQATIAASRQASSPNTSTTQQQTTTTQASINLATTSAAQLISRSQSVSSPSATTLTQSVLLGNTTSPPLNQSQAQMYLRPQLGNLLQVNRTLGRNVPLASQLILMPNGAVAAVQQEVPSAQSPGVHADADQVQNLAVRNQQASAQGPQMQGSTQKAIPPGASPVSSLSQASSQALAVAQASSGATNQSLNLSQAGGGSGNSIPGSMGPGGGGQAHGGLGQLPSSGMGGGSCPRKGTGVVQPLPAAQTVTVSQGSQTEAESAAAKKAEADGSGQQNVGMNLTRTATPAPSQTLISSATYTQIQPHSLIQQQQQIHLQQKQVVIQQQIAIHHQQQFQHRQSQLLHTATHLQLAQQQQQQQQQQQQQQQPQATTLTAPQPPQVPPTQQVPPSQSQQQAQTLVVQPMLQSSPLSLPPDAAPKPPIPIQSKPPVAPIKPPQLGAAKMSAAQQPPPHIPVQVVGTRQPGTAQAQALGLAQLAAAVPTSRGMPGTVQSGQAHLASSPPSSQAPGALQECPPTLAPGMTLAPVQGTAHVVKGGATTSSPVVAQVPAAFYMQSVHLPGKPQTLAVKRKADSEEERDDVSTLGSMLPAKASPVAESPKVMDEKSSLGEKAESVANVNANTPSSELVALTPAPSVPPPTLAMVSRQMGDSKPPQAIVKPQILTHIIEGFVIQEGAEPFPVGCSQLLKESEKPLQTGLPTGLTENQSGGPLGVDSPSAELDKKANLLKCEYCGKYAPAEQFRGSKRFCSMTCAKRYNVSCSHQFRLKRKKMKEFQEANYARVRRRGPRRSSSDIARAKIQGKCHRGQEDSSRGSDNSSYDEALSPTSPGPLSVRAGHGERDLGNPNTAPPTPELHGINPVFLSSNPSRWSVEEVYEFIASLQGCQEIAEEFRSQEIDGQALLLLKEEHLMSAMNIKLGPALKICAKINVLKET
In the case of B2, the binding result is “binds”.
